Laboratory results taken from PMC8110583.

Chains of the proteins cited; added tags and fusions are not shown.
UniProt Q01844: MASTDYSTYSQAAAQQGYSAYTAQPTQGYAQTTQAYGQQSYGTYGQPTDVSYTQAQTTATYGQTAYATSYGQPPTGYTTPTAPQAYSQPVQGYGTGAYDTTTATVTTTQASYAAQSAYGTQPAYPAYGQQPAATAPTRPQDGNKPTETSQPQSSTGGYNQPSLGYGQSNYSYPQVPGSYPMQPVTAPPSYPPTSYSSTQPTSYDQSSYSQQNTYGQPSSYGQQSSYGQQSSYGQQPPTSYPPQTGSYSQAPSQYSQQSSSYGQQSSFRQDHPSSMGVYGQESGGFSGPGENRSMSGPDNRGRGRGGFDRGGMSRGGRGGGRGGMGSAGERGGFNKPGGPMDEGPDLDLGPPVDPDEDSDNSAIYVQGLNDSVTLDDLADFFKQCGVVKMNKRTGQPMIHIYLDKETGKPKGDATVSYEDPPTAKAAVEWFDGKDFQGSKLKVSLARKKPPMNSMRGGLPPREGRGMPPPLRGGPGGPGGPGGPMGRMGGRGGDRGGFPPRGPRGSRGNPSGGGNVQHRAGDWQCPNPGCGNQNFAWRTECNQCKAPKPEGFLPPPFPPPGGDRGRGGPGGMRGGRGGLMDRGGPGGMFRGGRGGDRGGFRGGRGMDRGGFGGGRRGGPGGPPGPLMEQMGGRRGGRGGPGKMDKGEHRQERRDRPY
UniProt P09874: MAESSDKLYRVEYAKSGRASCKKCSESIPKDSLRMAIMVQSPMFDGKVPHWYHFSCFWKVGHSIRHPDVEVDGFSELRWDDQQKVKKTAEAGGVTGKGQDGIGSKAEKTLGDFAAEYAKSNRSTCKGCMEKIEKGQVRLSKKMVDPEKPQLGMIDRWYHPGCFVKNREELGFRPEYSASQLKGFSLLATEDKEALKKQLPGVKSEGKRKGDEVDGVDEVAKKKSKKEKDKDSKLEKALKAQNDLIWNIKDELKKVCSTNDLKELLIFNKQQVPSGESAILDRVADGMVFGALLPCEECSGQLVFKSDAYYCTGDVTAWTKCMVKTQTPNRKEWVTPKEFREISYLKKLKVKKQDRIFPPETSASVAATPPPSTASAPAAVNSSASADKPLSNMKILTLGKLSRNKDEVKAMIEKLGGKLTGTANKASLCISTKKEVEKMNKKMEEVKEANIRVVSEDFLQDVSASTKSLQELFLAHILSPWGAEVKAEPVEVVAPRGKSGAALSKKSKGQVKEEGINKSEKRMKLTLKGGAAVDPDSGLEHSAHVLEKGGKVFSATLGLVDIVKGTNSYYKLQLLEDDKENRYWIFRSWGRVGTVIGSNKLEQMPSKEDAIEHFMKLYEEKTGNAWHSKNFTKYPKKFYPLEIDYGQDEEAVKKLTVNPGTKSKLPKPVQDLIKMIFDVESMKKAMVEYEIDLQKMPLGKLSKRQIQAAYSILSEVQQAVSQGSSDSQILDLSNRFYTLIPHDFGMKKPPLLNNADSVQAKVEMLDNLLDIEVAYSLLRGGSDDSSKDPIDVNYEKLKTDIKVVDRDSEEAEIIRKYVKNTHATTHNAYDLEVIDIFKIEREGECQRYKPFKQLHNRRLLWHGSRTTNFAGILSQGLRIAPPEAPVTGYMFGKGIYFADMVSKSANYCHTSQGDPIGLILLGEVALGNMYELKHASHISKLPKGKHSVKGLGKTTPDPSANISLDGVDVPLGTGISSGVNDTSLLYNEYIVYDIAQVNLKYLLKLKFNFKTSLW

biological target: TDP-43 (human (endogenous in GPiNs, G401, T47D, A375)) (UniProt Q13148); assay: affinity purification with mass spectrometry; IP of endogenous TDP-43 from GPiN lysate (1-2 mg extract, 1-2 ug antibody, 4 C overnight, Protein G beads) against isotype-matched IgG control, triplicate, label-free LC-MS/MS; interactors: log2 FC > 0 and FDR <= 0.1

binding, binds:
EWSR1 (from UniProt Q01844 1-656)
PARP1 (from UniProt P09874 1-1014)
VCP (from UniProt P55072 1-806)

These are yes or no findings as the source states them, for the method shown. Binding seen in cells or lysates may run through a third protein. A yes stands for co-enrichment or nearness to the bait. Other partners may have been found.
